Experimental data published in patent publication US8008354B2, “Death receptor sensitizing compounds and methods of use therefor” (Burnham Institute for Medical Research, priority 2006, dated 2011).
Some entries share one result that the patent states for a list of compounds.

Test system: PPC-1 cells
Assay: MTT cell viability of PPC-1 cells treated with compound with or without CH-11 anti-FAS antibody
Assay type: cell-based
Details: combined with CH-11, median-dose combination index (Chou, 1991); synergy
Description: FIGS. 2A-C. […] PPC-1 cells (1×10^4) were seeded in 96 well plates. The next day, cells were treated with increasing concentrations of the sensitizing compounds with (open squares) and without (closed squares) CH-11 antibody (100 ng/mL). Cell viability was measured 24 hours later by MTT assay. Cell viability is expressed as a mean percentage of untreated cells+SD (n=3). The Chembridge identification numbers of the compounds are provided.
High throughput screening. […] PPC-1 cells (1×10^4) were seeded overnight into 96 well, flat-bottom plates (Costar, Cambridge, Mass.) in 100 μL of medium containing 2.5% FCS. […] CH-11 antibody (100 ng/mL) was then added, and the cells were incubated for 24 hours before assessing cell viability by a 3-(4,5-Dimethylthiazol-2-yl)-2,5-diphenyltetrazolium Bromide (MTT) dye reduction assay (Sigma).
Cell death assays. […] Absorbance readings were plotted against a standard curve to derive the corresponding cell number, and cell viability was expressed as a percentage relative to untreated cells.

Row | Compound | combination Index (CI)
1 | 4-(4-chloro-2-methylphenoxy)-N-hydroxybutanamide [compound 5809354] | < 1
2 | CC(=O)CC(=O)Nc1ccc(Cl)c(C(F)(F)F)c1 [compound 6094911, N-[4-chloro-3-(trifluoromethyl)phenyl]-3-oxobutanamide] | < 1
